Data source: PubChem BioAssay AID1259266 (Sanger Institute, 2017)

- Assay: 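Search kinases and colorectal cancer genes for essential genes and drug synergy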 (primary screen)
- Cells: LS123 human colorectal cancer cells
- Knock-down reagent: siRNA pool against human genes
- Challenge: anchor drugs BYL719 (1 µM), cetuximab (5 µg/ml) or trametinib (10 nM), each chosen to barely slow growth alone; DMSO vehicle as the drug-free arm
- Detection: 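Replicate-averaged viability scaled to non-targeting pools, robust z-score for siRNA alone, and a synergy score per anchor drug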
- Direction: robust z-score, knock-down alone: higher = more cells surviving after knock-down; viability, knock-down alone: higher = more viable cells
- Hit rule: 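Essential when the robust z-score of the knock-down alone is below -3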
- Meaning of the calls: active = essential (knock-down alone cuts viability); inactive = no change
In all, the deposit lists 794 reagents; below is a random part of them. 16 of all reagents (2%) were called active. 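Calls reflect knock-down alone, not drug synergy; viability seems capped at 1 and z-scores at 0.585.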 Not all columns of the deposit are shown. Not given: the amount of reagent, the time to read-out.

The first 3 entries, to show the layout:
gene,"robust z-score, knock-down alone","viability, knock-down alone (fraction of control)",Outcome
AKT3 (GeneID 10000),0.585,1,inactive
PIK3R5 (GeneID 23533),0.131,0.973,inactive
IPPK (GeneID 64768),-2.45,0.819,inactive

The listing, from the start:
gene,"robust z-score, knock-down alone","viability, knock-down alone (fraction of control)",Outcome
AKT3 (GeneID 10000),0.585,1,inactive
PIK3R5 (GeneID 23533),0.131,0.973,inactive
IPPK (GeneID 64768),-2.45,0.819,inactive
PANK1 (GeneID 53354),0.585,1,inactive
FGFR2 (GeneID 2263),0.436,0.991,inactive
PTPN11 (GeneID 5781),0.585,1,inactive
NEK10 (GeneID 152110),0.585,1,inactive
RIPK4 (GeneID 54101),0.585,1,inactive
ABL2 (GeneID 27),0.585,1,inactive
AXIN2 (GeneID 8313),0.585,1,inactive
MPP3 (GeneID 4356),-4.04,0.725,active
ROCK1 (GeneID 6093),0.585,1,inactive
FASTK (GeneID 10922),-0.337,0.945,inactive
PRKAB2 (GeneID 5565),0.0184,0.966,inactive
CASP8 (GeneID 841),0.585,1,inactive
PIKFYVE (GeneID 200576),0.585,1,inactive
CALM3 (GeneID 808),0.149,0.974,inactive
MAPK12 (GeneID 6300),0.585,1,inactive
LCK (GeneID 3932),-0.207,0.953,inactive
MAPK7 (GeneID 5598),0.585,1,inactive
GTF2H1 (GeneID 2965),-1.1,0.9,inactive
TESK2 (GeneID 10420),0.585,1,inactive
PRKCE (GeneID 5581),0.585,1,inactive
PAK5 (GeneID 57144),-0.0906,0.96,inactive
CDK5 (GeneID 1020),0.585,1,inactive
STK35 (GeneID 140901),0.585,1,inactive
MAPK1 (GeneID 5594),-0.585,0.93,inactive
CSNK2A1 (GeneID 1457),0.585,1,inactive
EIF2AK3 (GeneID 9451),0.585,1,inactive
FRK (GeneID 2444),-0.235,0.951,inactive
CDKN2C (GeneID 1031),0.585,1,inactive
MAK (GeneID 4117),-0.662,0.926,inactive
ITPK1 (GeneID 3705),0.585,1,inactive
BRDT (GeneID 676),-0.224,0.952,inactive
